Results on 78 substances are retold here after the supplement of paper PMC5949888.

Most values lie at the floor of the assay. Slopes are relative: functional sequences can read slightly below zero.

The data set has as its system Saccharomyces cerevisiae PS128 hsf1 delta, HSF1(1-493) fusion. The experiment in a line: growth estimate (transactivation domain function in HSF1 fusion, heat-shock survival) (a.u. (slope of normalised read count over time)); higher = stronger growth at 37°C, i.e. more transactivation activity. The following applies: library: random library.
For the substance QVPGECEATDWAVSNRPRSA, the growth estimate was under -0.25.

RSSPLLLCYAVRPVARAYTA: the growth estimate was under -0.25.

As for SGSRSPRLRFIMVYK, the growth estimate was under -0.25.

For TRILPHGDPIMERPTNGPST, the growth estimate is under -0.25.

For the substance FTLVRDSPGPIQPTTSPSPI, the growth estimate was under -0.25.

As for NPDLRGDAKFDTVSWLCLTV, the growth estimate is under -0.25.

Regarding LDQRSAQVRADLCWRTVPSD, the growth estimate is under -0.25.

On to PHVRNMGLPRITSLFCDCIC, for which the growth estimate is under -0.25.

On to GVRRAVSSYGRVKRLTRPTK, for which the growth estimate was under -0.25.

Turning to SVSERKMTTCYARAFARWIR, the growth estimate is under -0.25.

Regarding SSL, the growth estimate is under -0.25.

On to AGTEPGNTISSRALGPDGHS, for which the growth estimate is under -0.25.

As to HSRLQ, the growth estimate was under -0.25.

For WSTL, the growth estimate is under -0.25.

On to KFKLGAIRVEFWAGLDRDGT, for which the growth estimate is under -0.25.

ASLLWTVCGEVVMRMQCGER: the growth estimate is under -0.25.

As to WEFASRLGSI, the growth estimate is under -0.25.

For GTVRMMVAASPRRTARTVLR, the growth estimate was under -0.25.

Consider LASRADF, for which the growth estimate is under -0.25.

As to QLP, the growth estimate was under -0.25.

As to YLRKLNYVVYLKTVSTQASN, the growth estimate was under -0.25.

SLHGKSRIGFIPSGGI: the growth estimate was under -0.25.

For the substance VVLRSISGGNSIQSYGI, the growth estimate is under -0.25.

As to AVKVDQ, the growth estimate was under -0.25.

Regarding NEKGACTAQVGLQLLRDVVQ, the growth estimate was under -0.25.

Turning to WDKTLARIALSRLGRYKGVK, the growth estimate is under -0.25.

Turning to IIVEIIRAGRGSETHARDTT, the growth estimate was -0.25.

Take RDDSVGDVHKSAIEVRLYR: the growth estimate is under -0.25.

GISGYVGVYGPSQALFARTR: the growth estimate was under -0.25.

With VQGSPVQYGWVGVSRLHEPD, the growth estimate was under -0.25.

With LLGNKMLARPVCELATMGVR, the growth estimate was -0.192.

For the substance TQGEIREFLRD, the growth estimate is under -0.25.

Consider RGTNRTPAEGLVRHW, for which the growth estimate is under -0.25.

For YRAIWAVL, the growth estimate is under -0.25.

WGTAGSNNFKRGGASHTTGL: the growth estimate was under -0.25.

Consider LGKMYPSITRPA, for which the growth estimate was under -0.25.

GNTLGKWAAVMKARARTC: the growth estimate was under -0.25.

LWTPKCVCVTLVPGGGFTCS: the growth estimate is under -0.25.

Regarding DSVVAARGLRGK, the growth estimate is under -0.25.

As to LDGMTNTARILSF, the growth estimate was under -0.25.

On to DSTVQVVWPQFWCMQDRIER, for which the growth estimate is under -0.25.

TVPHDFIFHYLSSEG: the growth estimate is under -0.25.

With CRAVWQPMC, the growth estimate is under -0.25.

For the substance RTSGIQPTYTNHYKECVTGP, the growth estimate is under -0.25.

As to AADRSCPCVWAPLPDLRG, the growth estimate is under -0.25.

In the case of RCMHSCVCIRLNSVERTAVY, the growth estimate is under -0.25.

As to QQGRTRFLRRWRPDRSHVSR, the growth estimate was under -0.25.

With GWSDRAVYGQFVADASCVAG, the growth estimate is under -0.25.

For the substance FAERRRRLRPGRWPVEARKR, the growth estimate is under -0.25.

For the substance GSLCGLYYQNAVPVHCIGKT, the growth estimate was under -0.25.

Take SWLN: the growth estimate was -0.23.

Consider CTTRVR, for which the growth estimate was under -0.25.

On to NSIGAKVFLASALLITASTP, for which the growth estimate was under -0.25.

Take SLRHTDLSIRLWQFLSSVDL: the growth estimate was under -0.25.

Consider LLVLMECRSTPVHHNGDLAR, for which the growth estimate was under -0.25.

In the case of RSGGTHWNTPNGRRLAKTHT, the growth estimate was under -0.25.

Regarding ANGPNHYQSTNERTSNVYDV, the growth estimate was under -0.25.

Turning to RPRCKLCSDGSFTKPSIVRH, the growth estimate was under -0.25.

Regarding ANSQGRQSSMSGRGKARE, the growth estimate is under -0.25.

On to GTLHLPYESRWDSLYSVCDA, for which the growth estimate was under -0.25.

Regarding RLGDFWGPASVCHVAQTTPN, the growth estimate is under -0.25.

With HRPTHSGPGVL, the growth estimate is under -0.25.

As to SSVSEVIGPAPDRRREQIDT, the growth estimate was under -0.25.

Turning to NKYLGSSRFEIGLGSPGNGI, the growth estimate was under -0.25.

For the substance LFFV, the growth estimate is under -0.25.

As to RKTVETKLSG, the growth estimate is under -0.25.

PPRFSGLWLGP: the growth estimate was under -0.25.

Turning to LSGEGFRAQGFTILGPRRQC, the growth estimate is under -0.25.

In the case of VGLSANT, the growth estimate is under -0.25.

On to LRLIRTVSRPSRRIPGVGRF, for which the growth estimate was under -0.25.

For VMLFSSFMMRVCIPE, the growth estimate was under -0.25.

For the substance YSYDA, the growth estimate is under -0.25.

With FASDIRPTKVSIFYRFAGRG, the growth estimate is under -0.25.

Take LSGTI: the growth estimate is -0.248.

With PMLPHMRSALPGKARAQGRT, the growth estimate is under -0.25.

Turning to GMRDLRFESRGVHYVTTWGL, the growth estimate is under -0.25.

With QSQKLSRYVVMGCKVW, the growth estimate was under -0.25.

As for YTRT, the growth estimate is under -0.25.
